PubChem BioAssay AID602196 | INSERM | 2012

Aim: 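Knock-downs that protect lung cancer cells from cisplatin or sensitise them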
System: human A549 lung cancer cells
Reagents: siRNA pair against human genes
Time to read-out: 48 h transfection before cisplatin; time from cisplatin to read-out not stated
Treatment: cisplatin at a dose killing half of control-siRNA cells; exact dose and duration not given
Read-out: 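Cisplatin cell death as a shift from the 50% death seen with control siRNA; siRNAs toxic or growth-blocking alone scored 0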
Scale: two-siRNA summed score (-2 to +2): higher = both siRNAs protect from cisplatin killing; -2 means both sensitise; mean protection from cisplatin (shift in death) and protection from cisplatin (shift in death), siRNA C and protection from cisplatin (shift in death), siRNA D: higher = protection from cisplatin killing
Call rule: 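Each siRNA scores 0 if harmful alone by LDH or WST-1, otherwise +1 if it reduces and -1 if it increases cisplatin killing; a gene is active when both siRNAs agree (sum +2 or -2)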
Calls: active = both siRNAs shift cisplatin killing the same way; inactive = no consistent shift, or siRNA harmful alone
The whole screen tested about 23,000 reagents; this is a random part of them. 455 of them (2%) were called active. 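Active includes both protection and sensitisation; some change values fall well beyond the stated -50 to +50 range.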 Not stated in the record: the amount of reagent.

| target | two-siRNA summed score (-2 to +2) | mean protection from cisplatin (shift in death) (%) | protection from cisplatin (shift in death), siRNA C (%) | protection from cisplatin (shift in death), siRNA D (%) | outcome |
| --- | --- | --- | --- | --- | --- |
| CNOT7 (CCR4-NOT transcription complex subunit 7) | 2 | 14 | 13.1 | 14.9 | active |
| OR10G7 (olfactory receptor family 10 subfamily G member 7) | 0 | 2.2 | -3.8 | 8.2 | inactive |
| CX3CR1 (C-X3-C motif chemokine receptor 1) | 0 | 3 | -0.2 | 6.2 | inactive |
| PLAC9 (placenta associated 9) | 0 | 15.2 | 8.7 | 21.6 | inactive |
| MT1E (metallothionein 1E) | -1 | -14.9 | -4.9 | -24.9 | inactive |
| CEP85L (centrosomal protein 85L) | 0 | 11.8 | 4.9 | 18.6 | inactive |
| PAX5 (paired box 5) | 0 | 1.6 | -5.1 | 8.4 | inactive |
| CAPN11 (calpain 11) | 0 | 3.4 | 1.8 | 5 | inactive |
| AAMDC (adipogenesis associated Mth938 domain containing) | 0 | -3.8 | -0.9 | -6.8 | inactive |
| FLJ44082 | 0 | 12.3 | 3 | 21.6 | inactive |
| C12orf42 (chromosome 12 open reading frame 42) | -1 | -7.5 | -3.4 | -11.7 | inactive |
| FBXW10B (F-box and WD repeat domain containing 10B) | -1 | -9.8 | -13.5 | -6 | inactive |
| RFPL3 (ret finger protein like 3) | -1 | -17.8 | -9.7 | -25.8 | inactive |
| SDHAP2 (SDHA pseudogene 2) | 1 | 17 | 19.6 | 14.4 | inactive |
| CSNK1A1 (casein kinase 1 alpha 1) | -1 | -14 | -5.2 | -22.8 | inactive |
| CHUK | 0 | 1.1 | 0.3 | 2 | inactive |
| CELA3B (chymotrypsin like elastase 3B) | 0 | -1 | -14 | 12 | inactive |
| LOC392197 | 0 | -4.4 | 7 | -15.7 | inactive |
| CTBP1-DT (CTBP1 divergent transcript) | 1 | 4.8 | 14.8 | -5.1 | inactive |
| LOC440596 | 0 | 10.6 | 16.7 | 4.5 | inactive |
| NTF4 (neurotrophin 4) | 0 | 5.9 | 10.1 | 1.8 | inactive |
| PLEKHA4 (pleckstrin homology domain containing A4) | 0 | -7.2 | -3.7 | -10.6 | inactive |
| LINC02239 (long independently transcribed non-coding RNA 2239) | 0 | -5.7 | -15.2 | 3.9 | inactive |
| LINC00473 (long independently transcribed non-coding RNA 473) | 0 | 1.8 | 5 | -1.5 | inactive |
| DNM2 (dynamin 2) | 1 | 15.4 | 28.3 | 2.5 | inactive |
| LOC440841 | 0 | 25.2 | 39.5 | 10.8 | inactive |
| LGALS1 (galectin 1) | 0 | -1.8 | 3 | -6.6 | inactive |
| LOC401085 | 0 | 17.7 | 22.3 | 13 | inactive |
| LMF2 (lipase maturation factor 2) | 0 | 6 | 8.3 | 3.8 | inactive |
| EHMT2 (euchromatic histone lysine methyltransferase 2) | 0 | -18.8 | -12.2 | -25.3 | inactive |
| ZNHIT1 (zinc finger HIT-type containing 1) | 1 | 16.6 | 20.4 | 12.9 | inactive |
| GATA3 (GATA binding protein 3) | 0 | 6 | 7.1 | 4.9 | inactive |
| PABPC1 (poly(A) binding protein cytoplasmic 1) | -1 | -6 | 3.5 | -15.4 | inactive |
| MTCL3 (MTCL family member 3) | 0 | 6.7 | 10.8 | 2.6 | inactive |
| LOC389390 | 0 | -0.5 | -2.6 | 1.6 | inactive |
| GZMH (granzyme H) | 1 | 14.5 | 12.6 | 16.3 | inactive |
| FOXN2 (forkhead box N2) | 2 | 25 | 20.7 | 29.2 | active |

Targets above whose target name begins with G or g (2):
| target | two-siRNA summed score (-2 to +2) | mean protection from cisplatin (shift in death) (%) | protection from cisplatin (shift in death), siRNA C (%) | protection from cisplatin (shift in death), siRNA D (%) | outcome |
| --- | --- | --- | --- | --- | --- |
| GATA3 (GATA binding protein 3) | 0 | 6 | 7.1 | 4.9 | inactive |
| GZMH (granzyme H) | 1 | 14.5 | 12.6 | 16.3 | inactive |

The listing continues.
| target | two-siRNA summed score (-2 to +2) | mean protection from cisplatin (shift in death) (%) | protection from cisplatin (shift in death), siRNA C (%) | protection from cisplatin (shift in death), siRNA D (%) | outcome |
| --- | --- | --- | --- | --- | --- |
| PCDH11Y (protocadherin 11 Y-linked) | 0 | 5.9 | 19.4 | -7.7 | inactive |
| TRPM7 | 0 | -1.8 | -15.1 | 11.5 | inactive |
| KDM2B (lysine demethylase 2B) | -1 | -19.3 | -14.5 | -24 | inactive |
| LOC347381 | 0 | 5.2 | 2.4 | 8 | inactive |
| NSMCE2 (NSE2 SUMO ligase component of SMC5/6 complex) | 0 | 7.9 | 9.1 | 6.6 | inactive |
| BEST4 (bestrophin 4) | 1 | 6.5 | -8 | 20.9 | inactive |
| PTCRA (pre T cell antigen receptor alpha) | -1 | -13 | -12 | -14.1 | inactive |
| SNCA (synuclein alpha) | 0 | 1.2 | 11.6 | -9.2 | inactive |
| COX10 | 2 | 19.4 | 19.2 | 19.5 | active |
| KLHL15 (kelch like family member 15) | 0 | 9.9 | 9.2 | 10.6 | inactive |
| TMEM14A (transmembrane protein 14A) | 1 | 10 | 11.4 | 8.5 | inactive |
| GNAI2 (G protein subunit alpha i2) | 0 | 7.4 | 27 | -12.2 | inactive |
| CYP4A11 (cytochrome P450 family 4 subfamily A member 11) | 0 | -1.8 | 2.1 | -5.7 | inactive |
| TRIM34 (tripartite motif containing 34) | 0 | 1.7 | 38.5 | -35 | inactive |
| LOC388383 | 0 | 7.1 | 2.3 | 11.9 | inactive |
| LOC392335 | 1 | 14.6 | 18.8 | 10.4 | inactive |
| VWA8 (von Willebrand factor A domain containing 8) | 0 | 3.3 | -1.8 | 8.5 | inactive |
| ZZEF1 (zinc finger ZZ-type and EF-hand domain containing 1) | 0 | 5.3 | 2.8 | 7.9 | inactive |
| BAGE4 (BAGE family member 4) | 0 | 13 | -0.1 | 26.1 | inactive |
| PIP4K2A (phosphatidylinositol-5-phosphate 4-kinase type 2 alpha) | 1 | 9.9 | 19.6 | 0.1 | inactive |
| LOC389413 | 1 | 16.4 | 12.1 | 20.6 | inactive |
| LOC440127 | 0 | 9.7 | 9.9 | 9.5 | inactive |
| MPEG1 (macrophage expressed 1) | 1 | 9 | 3.5 | 14.4 | inactive |
| UNC80 (unc-80 subunit of NALCN channel complex) | 0 | 15 | 13.2 | 16.9 | inactive |
| RCOR3 (REST corepressor 3) | 0 | 6.4 | 0.2 | 12.6 | inactive |
| PREB (prolactin regulatory element binding) | 0 | 14.9 | 15.2 | 14.5 | inactive |
| SPRY1 (sprouty RTK signaling antagonist 1) | 0 | 0.5 | 2.9 | -2 | inactive |
| SFXN4 (sideroflexin 4) | 0 | 7.2 | 10.1 | 4.3 | inactive |
| FAM13C (family with sequence similarity 13 member C) | 1 | 15.1 | 19.9 | 10.3 | inactive |
| PSIP1 (PC4 and SRSF1 interacting protein 1) | 0 | 0.9 | -0.9 | 2.6 | inactive |
| APOB (apolipoprotein B) | 1 | 12 | 25.4 | -1.4 | inactive |
| CHIC2 (cysteine rich hydrophobic domain 2) | 0 | -18 | -33.6 | -2.3 | inactive |
| LOC440796 | 0 | 8.2 | 8.6 | 7.8 | inactive |
| HNRNPU (heterogeneous nuclear ribonucleoprotein U) | 0 | -4.3 | -6.8 | -1.7 | inactive |
| H2AC16 (H2A clustered histone 16) | 0 | 14 | 7.2 | 20.7 | inactive |
| ZBTB41 (zinc finger and BTB domain containing 41) | 1 | 13 | 23.8 | 2.2 | inactive |
